Experimental data taken from patent US12083124B2 (Incyte Corporation, priority 2019, dated 2024).
Some of these results come from one statement about several compounds together.

Chains of the proteins cited; added tags and fusions are not shown. Residues count along the entry.
UniProt P22607, 23-806: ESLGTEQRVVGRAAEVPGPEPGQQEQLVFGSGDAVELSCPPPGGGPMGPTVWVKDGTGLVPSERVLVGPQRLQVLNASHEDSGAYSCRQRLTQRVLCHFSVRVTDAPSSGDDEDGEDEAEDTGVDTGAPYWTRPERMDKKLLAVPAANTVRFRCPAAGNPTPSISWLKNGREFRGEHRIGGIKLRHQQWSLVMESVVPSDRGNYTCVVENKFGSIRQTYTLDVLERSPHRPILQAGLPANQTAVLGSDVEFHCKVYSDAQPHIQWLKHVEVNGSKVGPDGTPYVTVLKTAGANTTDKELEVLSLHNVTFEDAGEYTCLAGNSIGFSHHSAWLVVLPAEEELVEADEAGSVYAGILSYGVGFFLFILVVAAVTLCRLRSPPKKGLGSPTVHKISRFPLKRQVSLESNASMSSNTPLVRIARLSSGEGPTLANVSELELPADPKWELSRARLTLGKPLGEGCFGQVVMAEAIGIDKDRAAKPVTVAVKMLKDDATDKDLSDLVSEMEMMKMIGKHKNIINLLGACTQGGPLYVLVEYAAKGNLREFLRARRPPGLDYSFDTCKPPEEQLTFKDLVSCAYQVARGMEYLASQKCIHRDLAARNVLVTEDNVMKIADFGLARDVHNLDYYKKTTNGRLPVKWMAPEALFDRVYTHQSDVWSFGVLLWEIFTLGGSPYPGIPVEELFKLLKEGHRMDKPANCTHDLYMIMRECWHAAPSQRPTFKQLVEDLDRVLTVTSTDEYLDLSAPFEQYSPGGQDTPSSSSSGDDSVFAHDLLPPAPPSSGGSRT

Biological target: wild-type un-phosphorylated FGFR3 (Homo sapiens, UniProt P22607)
Assay: FGFR Enzymatic Assay (FRET peptide phosphorylation), FGFR3
Conditions: in some embodiments

Row | SMILES | inhibitory activity for FGFR3 over the inhibitory activity of the compounds of US2018/0072718 for FGFR3 [fold]
1 | COc1cc2[nH]nc(-c3cnn(C)c3)c2nc1-c1cccc2c1CCC2CO (single isomer, unassigned) [Example 11, (4-(6-Methoxy-3-(1-methyl-1H-pyrazol-4-yl)-1H-pyrazolo[4,3-b]pyridin-5-yl)-2,3-dihydro-1H-inden-1-yl)methanol] | ≥ 10
2 | COc1cc2[nH]nc(-c3ccc(OC4CCOC4)nc3)c2nc1-c1cccc2c1CC(O)C2 (single isomer, unassigned) [Example 73, 4-(6-Methoxy-3-(6-((tetrahydrofuran-3-yl)oxy)pyridin-3-yl)-1H-pyrazolo[4,3-b]pyridin-5-yl)-2,3-dihydro-1H-inden-2-ol] | ≥ 10
3 | COc1cc2[nH]nc(-c3ccc(C4CC(=O)N(C)C4)nc3)c2nc1-c1cccc2c1CCC2C#N (single isomer, unassigned) [Example 75, 4-(6-Methoxy-3-(6-(1-methyl-5-oxopyrrolidin-3-yl)pyridin-3-yl)-1H-pyrazolo[4,3-b]pyridin-5-yl)-2,3-dihydro-1H-indene-1-carbonitrile] | ≥ 10
4 | COc1cc2[nH]nc(-c3ccc(C4CCN(C(=O)[C@H](C)O)CC4)nc3)c2nc1-c1cccc2c1CC(F)C2 (single isomer, unassigned) [Example 81] | ≥ 10
5 | COc1cc2[nH]nc(-c3cnn(C)c3)c2nc1-c1cccc(C)c1C [Example 1, 5-(2,3-Dimethylphenyl)-6-methoxy-3-(1-methyl-1H-pyrazol-4-yl)-1H-pyrazolo[4,3-b]pyridine] | ≥ 10
6 | COc1cc2[nH]nc(-c3cnn(C)c3)c2nc1-c1cccc2c1CCC2 [Example 2, 5-(2,3-Dihydro-1H-inden-4-yl)-6-methoxy-3-(1-methyl-1H-pyrazol-4-yl)-1H-pyrazolo[4,3-b]pyridine] | ≥ 10

Next, values leading:

Row | inhibitory activity for FGFR3 over the inhibitory activity of the compounds of US2018/0072718 for FGFR3 [fold] | SMILES
7 | ≥ 10 | COc1cc2[nH]nc(-c3cnn(C)c3)c2nc1-c1cccc2c1CCC2O (single isomer, unassigned) [Example 7, 4-(6-Methoxy-3-(1-methyl-1H-pyrazol-4-yl)-1H-pyrazolo[4,3-b]pyridin-5-yl)-2,3-dihydro-1H-inden-1-ol]
8 | ≥ 10 | COc1cc2[nH]nc(-c3cnn(C)c3)c2nc1-c1cccc2c1CCC2O (single isomer, unassigned) [Example 8, 4-(6-Methoxy-3-(1-methyl-1H-pyrazol-4-yl)-1H-pyrazolo[4,3-b]pyridin-5-yl)-2,3-dihydro-1H-inden-1-ol]
9 | ≥ 10 | COc1cc2[nH]nc(-c3cnn(C)c3)c2nc1-c1cccc2c1CC(O)C2 (single isomer, unassigned) [Example 10, 4-(6-Methoxy-3-(1-methyl-1H-pyrazol-4-yl)-1H-pyrazolo[4,3-b]pyridin-5-yl)-2,3-dihydro-1H-inden-2-ol]
10 | ≥ 10 | Cn1cc(-c2n[nH]c3cc(Cl)c(-c4cccc5c4CC(O)C5)nc23)cn1 (single isomer, unassigned) [Example 39, 4-(6-Chloro-3-(1-methyl-1H-pyrazol-4-yl)-1H-pyrazolo[4,3-b]pyridin-5-yl)-2,3-dihydro-1H-inden-2-ol]
11 | ≥ 10 | [2H]C1(O)Cc2cccc(-c3nc4c(-c5cnn(C)c5)n[nH]c4cc3OC)c2C1 (single isomer, unassigned) [Example 74, 4-(6-Methoxy-3-(1-methyl-1H-pyrazol-4-yl)-1H-pyrazolo[4,3-b]pyridin-5-yl) 2,3-dihydro-1H-inden-2-d-2-ol]
